Data source: PubChem BioAssay AID1259405 (NCATS, 2018)

Purpose: 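Mouse-designed siRNAs used to find CHO productivity engineering targets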 (primary screen)
Cell system: Chinese hamster CHO-K1 ovary cells with stable secreted eGFP expression
Knock-down reagent: single siRNA against mouse genes, 0.8 pmol siRNA per well (2 µl of 400 nM stock)
Timing: 3 days
Detection: 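Percent of the per-plate non-targeting control median for intracellular GFP per well by laser scanning cytometry and for cell viability by ATP luminescence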
Reading the numbers: GFP, % of control: higher = more GFP per well, higher productivity; viability (ATP), % of control: higher = more viable cells (more ATP)
Active means: 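a knock-down is called active if GFP reaches 120% or more of non-targeting control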
In all, the deposit lists about 50,000 reagents; below is a part drawn at random. In the full data, about 4,000 (8%) got an active call. 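Mouse siRNA library applied to hamster cells; one well for each siRNA.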 Unmarked entries are inactive.

| target gene | PubChem SID | GFP, % of control | viability (ATP), % of control |
| --- | --- | --- | --- |
| D630044L22Rik (RIKEN cDNA gene D630044L22 gene) | SID363542628 | 103 | 62.2 |
| D630044L22Rik (RIKEN cDNA gene D630044L22 gene) | SID363546145 | 114 | 71.2 |
| D630044L22Rik (RIKEN cDNA gene D630044L22 gene) | SID363547901 | 65.1 | 50.2 |
| Ireb2 (iron responsive element binding protein 2) | SID363569039 | 89.8 | 103 |
| Ireb2 (iron responsive element binding protein 2) | SID363583471 | 57 | 77.5 |
| Spi1 (Spi-1 proto-oncogene) | SID363573735 | 97.6 | 110 |
| Spi1 (Spi-1 proto-oncogene) | SID363581479 | 36.2 | 27.8 |
| Spi1 (Spi-1 proto-oncogene) | SID363583943 | 94.7 | 102 |
| Icosl (icos ligand) | SID363540219 | 67.6 | 81.4 |
| Icosl (icos ligand) | SID363541971 | 80.6 | 80.4 |
| Icosl (icos ligand) | SID363566887 | 63.9 | 95.2 |
| Prkcd (protein kinase C, delta) | SID363569858 | 81.3 | 84.6 |
| Prkcd (protein kinase C, delta) | SID363576898 | 110 | 104 |
| Prkcd (protein kinase C, delta) | SID363578306 | 92.6 | 76 |
| Fabp7 (fatty acid binding protein 7, brain) | SID363570084 | 124 (active) | 109 |
| Fabp7 (fatty acid binding protein 7, brain) | SID363576420 | 64.4 | 73.5 |
| Fabp7 (fatty acid binding protein 7, brain) | SID363579588 | 45.6 | 59.2 |
| Khdrbs3 | SID363569624 | 85.3 | 93.6 |
| Khdrbs3 | SID363577368 | 55.6 | 80.7 |
| Khdrbs3 | SID363578776 | 55.6 | 90.7 |
| Or4k15b (olfactory receptor family 4 subfamily K member 15B) | SID363554449 | 52.3 | 60.1 |
| Or4k15b (olfactory receptor family 4 subfamily K member 15B) | SID363567896 | 114 | 75.3 |
| Or4k15b (olfactory receptor family 4 subfamily K member 15B) | SID363585955 | 70.2 | 106 |
| Lsm11 (U7 snRNP-specific Sm-like protein LSM11) | SID363540274 | 65.2 | 83.9 |
| Lsm11 (U7 snRNP-specific Sm-like protein LSM11) | SID363542026 | 72.9 | 87.4 |
| Lsm11 (U7 snRNP-specific Sm-like protein LSM11) | SID363566942 | 97.4 | 89.3 |
| Fam241b (family with sequence similarity 241, member B) | SID363543602 | 112 | 76.7 |
| Fam241b (family with sequence similarity 241, member B) | SID363553095 | 91 | 78.8 |
| Fam241b (family with sequence similarity 241, member B) | SID363558943 | 107 | 99.6 |
| Serpina3c (serine (or cysteine) peptidase inhibitor, clade A, member 3C) | SID363555375 | 60.1 | 59 |
| Serpina3c (serine (or cysteine) peptidase inhibitor, clade A, member 3C) | SID363564036 | 58.6 | 46.5 |
| Serpina3c (serine (or cysteine) peptidase inhibitor, clade A, member 3C) | SID363587582 | 113 | 95.8 |
| Brf1 | SID363573282 | 96.4 | 96.5 |
| Brf1 | SID363588521 | 112 | 97.8 |
| Alpk3 (alpha-kinase 3) | SID363572214 | 102 | 55.7 |
| Alpk3 (alpha-kinase 3) | SID363573974 | 65 | 70.4 |
| Vps52 (VPS52 GARP complex subunit) | SID363553820 | 105 | 70.4 |
| Vps52 (VPS52 GARP complex subunit) | SID363561777 | 205 (active) | 134 |
| Vps52 (VPS52 GARP complex subunit) | SID363565515 | 101 | 86 |
| Zfp639 (zinc finger protein 639) | SID363572135 | 76.8 | 65.4 |
| Zfp639 (zinc finger protein 639) | SID363573895 | 81.2 | 76.8 |
| Ppm1h (protein phosphatase 1H (PP2C domain containing)) | SID363547549 | 79.1 | 56.6 |
| Ppm1h (protein phosphatase 1H (PP2C domain containing)) | SID363558318 | 84.5 | 50.4 |
| Ppm1h (protein phosphatase 1H (PP2C domain containing)) | SID363560076 | 87 | 63.1 |
| Serpinb3c (serine (or cysteine) peptidase inhibitor, clade B, member 3C) | SID363555335 | 83.3 | 51.5 |
| Serpinb3c (serine (or cysteine) peptidase inhibitor, clade B, member 3C) | SID363563996 | 62.3 | 77.3 |
| Serpinb3c (serine (or cysteine) peptidase inhibitor, clade B, member 3C) | SID363587542 | 118 | 108 |
| Senp5 (SUMO/sentrin specific peptidase 5) | SID363574477 | 83.8 | 86.1 |
| Senp5 (SUMO/sentrin specific peptidase 5) | SID363575533 | 29.1 | 38.5 |
| Senp5 (SUMO/sentrin specific peptidase 5) | SID363580109 | 125 (active) | 93.9 |
| Syngr3 (synaptogyrin 3) | SID363553722 | 80 | 75.3 |
| Syngr3 (synaptogyrin 3) | SID363561679 | 80.9 | 78 |
| Syngr3 (synaptogyrin 3) | SID363565417 | 89.2 | 57.1 |
| Emc6 (ER membrane protein complex subunit 6) | SID363540788 | 69.5 | 80.5 |
| Emc6 (ER membrane protein complex subunit 6) | SID363543239 | 132 (active) | 73.8 |
| Emc6 (ER membrane protein complex subunit 6) | SID363552732 | 92.2 | 80.1 |
| Or6d13 (olfactory receptor family 6 subfamily D member 13) | SID363544417 | 39.6 | 21.5 |
| Or6d13 (olfactory receptor family 6 subfamily D member 13) | SID363550745 | 83.9 | 98.3 |
| Or6d13 (olfactory receptor family 6 subfamily D member 13) | SID363557294 | 62.2 | 65.7 |
| Lama1 (laminin, alpha 1) | SID363553872 | 50.4 | 52.5 |
| Lama1 (laminin, alpha 1) | SID363561829 | 85.6 | 73.6 |
| Lama1 (laminin, alpha 1) | SID363565567 | 65.5 | 61.1 |
| Slc22a22 | SID363547703 | 48.3 | 54 |
| Slc22a22 | SID363558472 | 60.6 | 68.4 |
| Slc22a22 | SID363560230 | 69.9 | 70.4 |
| Vmn1r178 (vomeronasal 1 receptor 178) | SID363544901 | 104 | 41.8 |
| Vmn1r178 (vomeronasal 1 receptor 178) | SID363551229 | 69.5 | 59.8 |
| Vmn1r178 (vomeronasal 1 receptor 178) | SID363557778 | 82.2 | 88.9 |
| Slco1c1 | SID363575138 | 116 | 105 |
| Slco1c1 | SID363580770 | 63.6 | 64.8 |
| Slco1c1 | SID363582882 | 96.7 | 94.1 |
| Hdhd5 (haloacid dehalogenase like hydrolase domain containing 5) | SID363550353 | 77.4 | 78.3 |
| Hdhd5 (haloacid dehalogenase like hydrolase domain containing 5) | SID363564862 | 60.2 | 56.3 |
| Hdhd5 (haloacid dehalogenase like hydrolase domain containing 5) | SID363588407 | 103 | 130 |
| Hcar2 (hydroxycarboxylic acid receptor 2) | SID363571130 | 38.1 | 70 |
| Hcar2 (hydroxycarboxylic acid receptor 2) | SID363571482 | 81.1 | 80.2 |
| Hcar2 (hydroxycarboxylic acid receptor 2) | SID363571834 | 60 | 57.6 |
| Plin1 (perilipin 1) | SID363569867 | 63.8 | 79.3 |
| Plin1 (perilipin 1) | SID363576907 | 106 | 87.5 |
| Plin1 (perilipin 1) | SID363578315 | 127 (active) | 179 |
| Mcee (methylmalonyl CoA epimerase) | SID363562128 | 103 | 79.4 |
| Mcee (methylmalonyl CoA epimerase) | SID363567266 | 89.6 | 93.3 |
| Mcee (methylmalonyl CoA epimerase) | SID363584623 | 39.2 | 37.8 |
| Slc23a3 | SID363547882 | 50.9 | 44 |
| Slc23a3 | SID363558651 | 43.1 | 58.5 |
| Slc23a3 | SID363560409 | 90.6 | 77.4 |
| Angpt2 (angiopoietin 2) | SID363573453 | 70.8 | 101 |
| Angpt2 (angiopoietin 2) | SID363588692 | 86.1 | 67.1 |
| Ssc5d (scavenger receptor cysteine rich family, 5 domains) | SID363544141 | 74.8 | 80.5 |
| Ssc5d (scavenger receptor cysteine rich family, 5 domains) | SID363550469 | 105 | 58.2 |
| Ssc5d (scavenger receptor cysteine rich family, 5 domains) | SID363557018 | 161 (active) | 191 |
| Iqce (IQ motif containing E) | SID363543595 | 83.6 | 84.8 |
| Iqce (IQ motif containing E) | SID363553088 | 71.8 | 76.5 |
| Iqce (IQ motif containing E) | SID363558936 | 61.6 | 74.1 |
| Fbxo4 (F-box protein 4) | SID363541863 | 66.4 | 84.1 |
| Fbxo4 (F-box protein 4) | SID363553455 | 37.7 | 31.2 |
| Fbxo4 (F-box protein 4) | SID363566779 | 157 (active) | 39.3 |
| Tle3 (transducin-like enhancer of split 3) | SID363547221 | 86.1 | 80.1 |
| Tle3 (transducin-like enhancer of split 3) | SID363557990 | 111 | 86.6 |
| Tle3 (transducin-like enhancer of split 3) | SID363559748 | 78.2 | 85.9 |
| Mnd1 (meiotic nuclear divisions 1) | SID363544025 | 68.3 | 79 |
| Mnd1 (meiotic nuclear divisions 1) | SID363551761 | 70.2 | 58.3 |
| Mnd1 (meiotic nuclear divisions 1) | SID363559366 | 82.2 | 73.9 |
| Wipf2 (WAS/WASL interacting protein family, member 2) | SID363552175 | 92.3 | 44.5 |
| Wipf2 (WAS/WASL interacting protein family, member 2) | SID363585311 | 82 | 61.3 |
| Wipf2 (WAS/WASL interacting protein family, member 2) | SID363585662 | 38.9 | 53.5 |
| Cdc50a (cell division cycle 50 P4-ATPase accessory subunit A) | SID363539573 | 81 | 81.3 |
| Cdc50a (cell division cycle 50 P4-ATPase accessory subunit A) | SID363560874 | 66.2 | 92.1 |
| Cdc50a (cell division cycle 50 P4-ATPase accessory subunit A) | SID363564964 | 130 (active) | 109 |
